Several values for one entry are separate records, joined by “and”; a condition that tells them apart may be missing. Identical values can stand only once. Counter-ions that a name gives are not always drawn. Some of the results follow. Single values are uncertain here, since repeats match poorly.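 In a drug-repurposing library screen, luminescence reads luciferase driven by eight TEAD-binding elements, stably integrated into human kidney-derived cells. Compounds scoring over five robust Z scores above the plate mean are called hits.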
System: HEK293A TEAD-LUC reporter
Assay: TEAD-luciferase reporter activity (YAP activation), robust Z score vs plate; higher = stronger YAP/TEAD activation
Settings: 24 h

SMILES | TEAD-luciferase reporter activity (compound concentration: 2 uM) | TEAD-luciferase reporter activity (compound concentration: 200 nM) | TEAD-luciferase reporter activity (compound concentration: 10 uM)
Cc1cccc(C)c1NC(=O)C1CCCCN1C (stereo unspecified) [mepivacaine, Biochronomer] | inactive: -1.36 |  | 
Cc1cccc(C)c1NC(=O)C1CCCCN1C (stereo unspecified) |  | inactive: -1.07 | inactive: -0.82
CC(C)(CCCOc1ccc(OCCCC(C)(C)C(=O)O)c(-c2ccccc2)c1)C(=O)O | inactive: -0.5 | inactive: -1.17 | inactive: -1.46
O=C(O)c1ccccc1SCCCN1C(=O)c2cccc3cccc(c23)C1=O | inactive: -1.53 | inactive: 0.918 | inactive: 0.237
FC(F)(F)c1cccc(N2CCN(CCSc3nnc4ccccn34)CC2)c1 | inactive: 0.598 | inactive: -1 | inactive: -0.251
Cc1ccc(C(=O)Nc2ccc(CN3CCN(C)CC3)c(C(F)(F)F)c2)cc1C#Cc1cnc2cccnn12 [Ponatinib] | inactive: -3.9 | inactive: 2.43 | inactive: -2.97
CCCCCc1ccc(C)cc1O | inactive: -1.45 | inactive: -0.713 | inactive: -1.09
COc1cccc(-c2ccc(C(=O)N3CCC(NC(=O)c4ccccc4OC)CC3)cc2)c1 |  | inactive: 3.92 | inactive: 2.03
Cc1nc2cc(C(c3ccccc3)n3ccnc3)ccc2[nH]1 (stereo unspecified) | inactive: -0.649 | inactive: -1.08 | inactive: -1.61
N[C@@H](CC(=O)N1CCn2c(nnc2C(F)(F)F)C1)Cc1cc(F)c(F)cc1F [(ï¿½Â Â )-Sitagliptin (phosphate)] |  | inactive: -0.909 | inactive: 0.974
N[C@@H](CC(=O)N1CCn2c(nnc2C(F)(F)F)C1)Cc1cc(F)c(F)cc1F [sitagliptin phosphate] | inactive: 1.24 |  | 
Cc1cc(C)c2c3ccccc3n(Cc3ccc([C@@H](C(=O)N[C@@H](CO)c4ccccc4)C4CCCC4)cc3)c2n1 [Implitapide] | inactive: -1.52 | inactive: 0.83 | inactive: 0.594
CCC[n+]1cc(Br)cc(C(=O)N(CCC(=O)NCCOC(=O)N2CCc3ccccc3C2)c2ccccc2)c1 [TCV-309 (chloride)] | inactive: -0.404 | inactive: -0.366 | inactive: 2.61
O=C(NO)c1cnc(N2C[C@@H]3[C@H](C2)[C@H]3NCc2ccc3cc(F)ccc3n2)nc1 | active: 42.5 | active: 10.9 | active: 67.8
Cc1c(-c2ccccc2)oc2c(C(=O)OCCN3CCCCC3)cccc2c1=O [flavoxate] | inactive: -0.698 | inactive: -2.52 | inactive: 2.1
CN(C)CC(=O)N1Cc2ccccc2CC2(CCCCN2Cc2ccccc2)C1 (stereo unspecified) |  | inactive: -0.605 | inactive: -1.44
CCC(Oc1cccc(CN(CCCOc2ccc(OC)cc2)c2nc3ccccc3o2)c1)C(=O)O (stereo unspecified) [Pemafibrate] | inactive: -0.0856 | inactive: -1.32 | inactive: -0.695
N=C(N)c1ccc(C(=O)NCCC(=O)N[C@@H](CC(=O)O)C(=O)N[C@@H](Cc2ccccc2)C(=O)O)cc1 | inactive: -0.698 | inactive: -1.14 | inactive: -0.524
COC(=O)c1ccccc1-c1c2ccc(=N)c(Br)c-2oc2c(Br)c(N)ccc12 | inactive: -0.857 | inactive: -0.309 | inactive: 1.88
COc1ccc(C(=O)Nc2c(Cl)c[n+]([O-])cc2Cl)cc1OC1CC[C@@H](O)C1 (stereo partly specified) | inactive: 0.124 | inactive: -1.03 | inactive: 0.547

SMILES | TEAD-luciferase reporter activity (compound concentration: 2 uM) | TEAD-luciferase reporter activity (compound concentration: 200 nM) | TEAD-luciferase reporter activity (compound concentration: 10 uM)
C[C@H]1COc2c(N3CC(N)C4(CCC4)C3)c(F)cc3c(=O)c(C(=O)O)cn1c23 (stereo partly specified) | inactive: -0.0488 | inactive: -0.241 | inactive: -0.593
CCCCC(=O)OC1CCC2C3CCc4cc(O)ccc4C3CCC12C (stereo unspecified) [Estradiol valerate] | inactive: -0.244 | inactive: 4.77 | inactive: 0.614
Cc1ccnn1-c1cc(CN2CC[C@]3(C=CC(=O)N3c3cccc(F)c3)C[C@@H]2C)ccc1O | inactive: 0.0516 | inactive: 0.598 | inactive: -0.184
O=C([O][Al]([OH])[OH])[C@H](O)[C@@H](O)[C@H](O)[C@H](O)CO [alglutamol] | inactive: -1.16 | inactive: 0.177 | inactive: -1.13
COC(=O)Nc1nc2cc(C3(O)c4ccccc4C(=O)N3c3cc(Cl)ccc3C)ccc2[nH]1 (stereo unspecified) | inactive: 0.0115 and inactive: -0.565 | inactive: -1.39 and inactive: -1.45 | inactive: -0.77 and inactive: -0.41
OC1CCN(Cc2cccc(Nc3ncnc4ccccc34)c2)CC1 | inactive: 2.13 | inactive: -0.75 | inactive: -0.81
Nc1nc(=O)n([C@H]2C[C@H](O)[C@@H](CO)O2)cc1Cl [Cytochlor] | inactive: 0.765 | inactive: 1.43 | inactive: 2.82
O=c1[nH]nc(O)c2c1cc1cc(Br)ccc1[n+]2[O-] | inactive: -0.89 | inactive: -0.946 | inactive: -1.62
CCN(CC)CC(=O)Nc1c(C)cccc1C |  | inactive: 0.602 | active: 6.61
CCN(CC)CC(=O)Nc1c(C)cccc1C [lidocaine 4 %] | inactive: -0.621 |  | 
CC(C)=CCOc1cc(NC(=O)c2cscn2)ccc1Cl | inactive: 0.0504 | inactive: 0.0965 | inactive: 1.07
Nc1ccn(C[C@@H](CO)OCP(=O)(O)O)c(=O)n1 [cidofovir hydrate] |  | inactive: -3.01 | inactive: 0.329
Nc1ccn(C[C@@H](CO)OCP(=O)(O)O)c(=O)n1 [cidofovir gel] | inactive: 1.54 |  | 
CCCCCCCCCCCC(=O)OCC(O)[C@H]1OC[C@H](O)[C@H]1O (stereo partly specified) | inactive: -1.31 | inactive: 1.1 | inactive: 2.2
CNC1CCCN(c2c(F)cc3c(=O)c(C(=O)O)cn(C4CC4)c3c2OC)C1 (stereo unspecified) [balofloxacin] | inactive: -0.0846 | inactive: 0.28 | inactive: -0.911
NS(=O)(=O)c1cc2c(cc1Cl)NC(Cc1ccc(F)cc1)NS2(=O)=O (stereo unspecified) | inactive: -1.32 | inactive: -0.421 | inactive: -0.565
C=C(NNC(=O)c1ccncc1)c1ccco1 | inactive: -1.69 | inactive: 0.228 | inactive: 2.31
CN1CCN(c2ccc(-c3cccc(CN4CCOCC4)c3)cc2NC(=O)c2c[nH]c(=O)cc2C(F)(F)F)CC1 | inactive: 0.716 | inactive: -0.805 | inactive: 0.998
CCCCC1CCN(CCCC(=O)c2ccccc2C)CC1 |  | inactive: -1.47 | inactive: -1.86
CCN(CC)CCn1c(-c2ccccc2)noc1=N | inactive: 2.14 | inactive: -0.00721 | inactive: -1.22

SMILES | TEAD-luciferase reporter activity (compound concentration: 2 uM) | TEAD-luciferase reporter activity (compound concentration: 200 nM) | TEAD-luciferase reporter activity (compound concentration: 10 uM)
O=C(O)CC(O)CC(O)/C=C/c1c(C2CC2)nc2ccccc2c1-c1ccc(F)cc1 (stereo unspecified) [pitavastatin calcium, Kowa] |  | inactive: -1.03 | inactive: -0.404
O=C(O)CC(O)CC(O)/C=C/c1c(C2CC2)nc2ccccc2c1-c1ccc(F)cc1 (stereo unspecified) [pitavastatin calcium] | inactive: -2.03 |  | 
O=[N+]([O-])c1cncn1CCN1CCOCC1 [nimorazole] | inactive: -1.91 | inactive: -0.0253 | inactive: 0.602
COc1ccccc1C(=O)NC1CCN(C(=O)c2ccc(-c3ccccc3OC)cc2)CC1 |  | inactive: -2.72 | inactive: 2.4
CCOC(=O)C(N)/C=C(\C)CP(=O)(O)O (stereo unspecified) | inactive: 0.693 | inactive: -0.221 | inactive: 0.474
C#CC1(OCC(O)CN2CCN(c3ccccc3OC)CC2)CCCCC1 (stereo unspecified) | inactive: 0.989 | inactive: 0.74 | inactive: 3.39
NCC(=O)CCC(=O)OCc1ccccc1 [Aminolevulinic acid benzyl ester] | inactive: -0.161 | inactive: 0.702 | inactive: 2.86
CCCCCn1c(=O)c2[nH]c(Cl)nc2n(CCCCC)c1=O | inactive: 3.36 | inactive: -0.669 | inactive: -0.0539
Cc1cccc(C)c1NCCNCC(O)COc1cccc2[nH]ncc12 (stereo unspecified) [neraminol] | inactive: -0.157 | inactive: -0.164 | inactive: 1.56
O=C1O[C@]2(CC[C@@H](C(=O)Nc3ccn(-c4ccccc4F)n3)CC2)c2cnccc21 | inactive: 0.235 | inactive: 0.287 | inactive: -0.261
CN(CC1CCCCC1)C1CCc2ccccc21 (stereo unspecified) |  | inactive: -0.219 | inactive: 0.927
CC(=O)CC(c1ccc([N+](=O)[O-])cc1)c1c(O)c2ccccc2oc1=O (stereo unspecified) [Acenocoumarol] | inactive: -2.2 | inactive: -0.583 | inactive: 1.67
CN/C(=N\C#N)NCCSCc1nc[nH]c1C [cimetidine] | inactive: 2 | inactive: -0.83 | inactive: 1.02
CCN[C@@H]1C[C@H](N)C(O[C@H]2O[C@H](CN)CCC2N)[C@H](O)[C@H]1O[C@H]1OC[C@](C)(O)[C@H](NC)[C@H]1O (stereo partly specified) [Etimicin Sulfate] | inactive: -0.497 | inactive: -1.1 | inactive: -0.355
CC[C@@]1(O)C(=O)OCc2c1cc1n(c2=O)Cc2c-1nc1ccccc1c2CCNC(C)C [Belotecan Hydrochloride] | inactive: -2.04 | inactive: -0.879 | inactive: -1.88
CC1=C(C(=O)O)N2C(=O)C(NC(=O)C(N)c3ccccc3)C2SC1 (stereo unspecified) [cefalexin HCl monohydrate] | inactive: 0.515 | inactive: -0.757 | inactive: -1.18
CO[C@H]1C=CO[C@@]2(C)Oc3c(C)c(O)c4c(O)c(c(/C=N/N5CCN(C6CCCC6)CC5)c(O)c4c3C2=O)NC(=O)/C(C)=C\C=C/[C@H](C)[C@H](O)[C@@H](C)[C@@H](O)[C@@H](C)[C@H](OC(C)=O)[C@@H]1C [Rifapentine] | inactive: 0.141 |  | 
CO[C@H]1C=CO[C@@]2(C)Oc3c(C)c(O)c4c(O)c(c(/C=N/N5CCN(C6CCCC6)CC5)c(O)c4c3C2=O)NC(=O)/C(C)=C\C=C/[C@H](C)[C@H](O)[C@@H](C)[C@@H](O)[C@@H](C)[C@H](OC(C)=O)[C@@H]1C [Rifapentine (Priftin)] |  | inactive: 0.695 | inactive: 2.04
